Like-named read-outs stand apart in the source and are kept apart here. No constants are given. Whether binding was seen depends on the method and setting. In cells and extracts the contact can be indirect. Some binding calls cover weakened binding; strength is not graded here.
Key:
[1] = molecular target: T1, Ecotropic viral integration site 5 (EVI5) (human (endogenous in A549)) (UniProt O60447); assay: co-IP; lysates (modified RIPA buffer with protease and phosphatase inhibitors) of control, EVI5-overexpressing or EVI5-KO A549 cells; pre-cleared with protein G beads; 1 μg rabbit anti-EVI5 antibody (Abcam ab70790) overnight in a cold room, then protein G beads 3-4 h; washed three times with RIPA buffer; western blot
T1 sequence: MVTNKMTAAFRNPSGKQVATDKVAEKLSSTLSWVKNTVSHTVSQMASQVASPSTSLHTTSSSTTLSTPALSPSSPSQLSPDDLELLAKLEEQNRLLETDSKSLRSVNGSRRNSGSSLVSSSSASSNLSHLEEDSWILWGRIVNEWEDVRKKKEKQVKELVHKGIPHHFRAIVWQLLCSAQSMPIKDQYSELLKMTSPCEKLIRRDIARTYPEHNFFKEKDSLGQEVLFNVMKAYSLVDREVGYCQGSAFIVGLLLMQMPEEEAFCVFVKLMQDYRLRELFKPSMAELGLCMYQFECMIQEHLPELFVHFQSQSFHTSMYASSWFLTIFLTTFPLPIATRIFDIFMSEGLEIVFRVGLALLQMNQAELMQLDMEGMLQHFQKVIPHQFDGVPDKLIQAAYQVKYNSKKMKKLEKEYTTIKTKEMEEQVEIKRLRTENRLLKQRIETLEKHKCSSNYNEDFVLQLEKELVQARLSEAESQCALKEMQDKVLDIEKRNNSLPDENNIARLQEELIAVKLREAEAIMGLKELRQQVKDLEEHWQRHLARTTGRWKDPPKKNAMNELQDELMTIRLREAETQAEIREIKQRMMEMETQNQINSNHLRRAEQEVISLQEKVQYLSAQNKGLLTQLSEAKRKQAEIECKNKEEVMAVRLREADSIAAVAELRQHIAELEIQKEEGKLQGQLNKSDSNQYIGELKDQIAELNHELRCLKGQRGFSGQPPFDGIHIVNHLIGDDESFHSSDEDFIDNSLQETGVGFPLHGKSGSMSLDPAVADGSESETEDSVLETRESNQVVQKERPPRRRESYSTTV

Chains of the proteins cited; added tags and fusions are not shown. Residues count along the entry.
UniProt P37173, residues 23-567: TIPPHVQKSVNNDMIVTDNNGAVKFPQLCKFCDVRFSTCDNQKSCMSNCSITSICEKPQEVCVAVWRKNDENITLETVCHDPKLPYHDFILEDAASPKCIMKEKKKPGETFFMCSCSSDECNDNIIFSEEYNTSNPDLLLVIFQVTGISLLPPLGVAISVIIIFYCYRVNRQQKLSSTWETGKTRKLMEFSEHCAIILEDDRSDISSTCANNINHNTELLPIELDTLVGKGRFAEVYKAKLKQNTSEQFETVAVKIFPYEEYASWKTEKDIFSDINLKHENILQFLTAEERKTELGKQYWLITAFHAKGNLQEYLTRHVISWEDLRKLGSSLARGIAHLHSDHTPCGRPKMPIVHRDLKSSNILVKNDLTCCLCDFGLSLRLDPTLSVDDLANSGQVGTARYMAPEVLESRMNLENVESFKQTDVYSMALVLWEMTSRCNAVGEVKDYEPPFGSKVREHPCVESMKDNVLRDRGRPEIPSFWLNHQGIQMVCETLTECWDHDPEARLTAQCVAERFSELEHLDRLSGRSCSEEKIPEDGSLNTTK

[2] = molecular target: T1, Ecotropic viral integration site 5 (EVI5) (human (endogenous in A549)); assay: as above; remark: listed apart in the source

TGF-β receptor II (from UniProt P37173 23-567)
binding [1]: binds

B1: Emi1 (protein, UniProt Q9UKT4 1-447)
chain: MSRRPCSCALRPPRCSCSASPSAVTAAGRPRPSDSCKEESSTLSVKMKCDFNCNHVHSGLKLVKPDDIGRLVSYTPAYLEGSCKDCIKDYERLSCIGSPIVSPRIVQLETESKRLHNKENQHVQQTLNSTNEIEALETSRLYEDSGYSSFSLQSGLSEHEEGSLLEENFGDSLQSCLLQIQSPDQYPNKNLLPVLHFEKVVCSTLKKNAKRNPKVDREMLKEIIARGNFRLQNIIGRKMGLECVDILSELFRRGLRHVLATILAQLSDMDLINVSKVSTTWKKILEDDKGAFQLYSKAIQRVTENNNKFSPHASTREYVMFRTPLASVQKSAAQTSLKKDAQTKLSNQGDQKGSTYSRHNEFSEVAKTLKKNESLKACIRCNSPAKYDCYLQRATCKREGCGFDYCTKCLCNYHTTKDCSDGKLLKASCKIGPLPGTKKSKKNLRRL
binding [2]: binds

B2: TGF-β receptor I (receptor, UniProt P36897 34-503)
chain: LQCFCHLCTKDNFTCVTDGLCFVSVTETTDKVIHNSMCIAEIDLIPRDRPFVCAPSSKTGSVTTTYCCNQDHCNKIELPTTVKSSPGLGPVELAAVIAGPVCFVCISLMLMVYICHNRTVIHHRVPNEEDPSLDRPFISEGTTLKDLIYDMTTSGSGSGLPLLVQRTIARTIVLQESIGKGRFGEVWRGKWRGEEVAVKIFSSREERSWFREAEIYQTVMLRHENILGFIAADNKDNGTWTQLWLVSDYHEHGSLFDYLNRYTVTVEGMIKLALSTASGLAHLHMEIVGTQGKPAIAHRDLKSKNILVKKNGTCCIADLGLAVRHDSATDTIDIAPNHRVGTKRYMAPEVLDDSINMKHFESFKRADIYAMGLVFWEIARRCSIGGIHEDYQLPYYDLVPSDPSVEEMRKVVCEQKLRPNIPNRWQSCEALRVMAKIMRECWYANGAARLTALRIKKTLSQLSQQEGIKM
binding [2]: binds
